Results are given in words; binding and its absence hold for the method and conditions named. A result given as binding can be weak or reduced; the word gives no strength.

This assay concerns the target MBP-LgFKF1-Kelch (Kelch repeat domain of LgFKF1, residues 300-630) (Luculia gratissima). Briefly: pull-down; 200 μg of the held MBP or GST fusion incubated with 200 μg of the His-SUMO or GST fusion at 4°C overnight; washed three times with PBS; blots with anti-MBP, anti-GST or anti-His; both purified.

On to “10 × His-SUMO-LgPRR7-PR (PR domain of LgPRR7, residues 97-556) (from UniProt A0A8K1UAW4) (domain or fragment)”, for which the binding result is listed as “binds”.

The values are drawn from article PMC12227992.
